Results from paper PMC9598311, “Identification of a Small Molecule That Inhibits the Interaction of LPS Transporters LptA and LptC” (Antibiotics, 2022).
No constants are given. Whether binding was seen depends on the method and setting. Some binding calls cover weakened binding; strength is not graded here. Sequences can lack the tags named with a protein.

Molecular target: T1, LptC fused to the Gal4 DNA-binding domain (pBD-LptC) (Escherichia coli) (UniProt P0ADV9)
T1 sequence: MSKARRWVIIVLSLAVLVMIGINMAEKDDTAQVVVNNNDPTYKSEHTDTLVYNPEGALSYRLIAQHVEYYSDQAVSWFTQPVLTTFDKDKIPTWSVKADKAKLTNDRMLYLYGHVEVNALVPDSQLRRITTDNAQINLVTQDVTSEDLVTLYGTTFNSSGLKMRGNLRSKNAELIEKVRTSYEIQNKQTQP
Assay: two-hybrid; yeast AH109, Gal4 AD and BD fusions; growth on SD/-Leu-Trp-Ade-His medium and β-gal activity; 30 °C

binding: binds
B1: LptA fused to the Gal4 activation domain (pAD-LptA) (protein, UniProt P0ADV1 1-185)
chain: MKFKTNKLSLNLVLASSLLAASIPAFAVTGDTDQPIHIESDQQSLDMQGNVVTFTGNVIVTQGTIKINADKVVVTRPGGEQGKEVIDGYGKPATFYQMQDNGKPVEGHASQMHYELAKDFVVLTGNAYLQQVDSNIKGDKITYLVKEQKMQAFSDKGKRVTTVLVPSQLQDKNNKGQTPAQKKGN
